# Experimental data: PubChem BioAssay AID1259254 (NCATS, 2017)
# Screen: 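Gene knock-downs that lead to re-replication, shown by excess G2 DNA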 (primary screen)
# Cell system: human HCT116 colorectal cancer cells
# Reagent: single siRNA against human genes
# Time to read-out: 3 days
# Measured: 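Imaged Hoechst DNA stain sorts each cell into a cycle phase by DNA amount; per plate, G2 fraction set to 0% for non-targeting and 100% for GMNN siRNA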
# Scale: G2 robust z-score and G2 cells, % of GMNN control: higher = more G2 cells, more excess DNA replication; raw share of cells in G2: higher = larger share of cells with G2 DNA content
# Active means: 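Active siRNAs have a G2 robust z of 5 or more median absolute deviations over the median, which in these data means about 38% or higher of GMNN control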
# The deposit covers about 59,000 reagents; below is a part drawn at random. About 1,550 of them (2.6%) count as active. 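G2 share is only a proxy for re-replication; each gene was hit by three separate siRNAs, and active genes were retested.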 Raw values vary from plate to plate and are shown uncorrected. Unmarked entries are inactive. The numbers tell different reagents against one gene apart. The record does not give: the amount of reagent.
G2 robust z-score,"G2 cells, % of GMNN control",raw share of cells in G2 (%),target,reagent no.
3.66,28.7,14.5,SIK1 (salt inducible kinase 1),1
-1.19,-5.42,3.22,SIK1 (salt inducible kinase 1),2
-0.326,0.672,3.9,SIK1 (salt inducible kinase 1),3
1.97,16.8,11.3,"PCDHGA5 (protocadherin gamma subfamily A, 5)",1
0.788,8.51,10.2,"PCDHGA5 (protocadherin gamma subfamily A, 5)",2
0.85,8.94,7.64,"PCDHGA5 (protocadherin gamma subfamily A, 5)",3
-1.06,-4.5,2.29,TMEM52B (transmembrane protein 52B),1
-0.542,-0.847,3.08,TMEM52B (transmembrane protein 52B),2
-0.359,0.444,1.95,TMEM52B (transmembrane protein 52B),3
-0.202,1.55,4.99,NCAPD3 (non-SMC condensin II complex subunit D3),1
3.06,24.5,14.5,NCAPD3 (non-SMC condensin II complex subunit D3),2
4.13,32,14.5,NCAPD3 (non-SMC condensin II complex subunit D3),3
0.791,8.53,8.55,PPARA (peroxisome proliferator activated receptor alpha),1
-0.491,-0.49,4.38,PPARA (peroxisome proliferator activated receptor alpha),2
-0.205,1.53,4.46,PPARA (peroxisome proliferator activated receptor alpha),3
1.69,14.8,12.6,MOB1B (MOB kinase activator 1B),1
-0.362,0.42,5.15,MOB1B (MOB kinase activator 1B),2
-0.787,-2.57,3.51,MOB1B (MOB kinase activator 1B),3
0.373,5.59,6.28,SSMEM1 (serine rich single-pass membrane protein 1),1
0.812,8.68,5.86,SSMEM1 (serine rich single-pass membrane protein 1),2
-0.782,-2.54,1.66,SSMEM1 (serine rich single-pass membrane protein 1),3
4.56,35,16.6,SOHLH1,1
-0.117,2.14,4.37,SOHLH1,2
-0.602,-1.27,4.27,SOHLH1,3
0.987,9.91,8.9,RYR3 (ryanodine receptor 3),1
-0.522,-0.703,4.54,RYR3 (ryanodine receptor 3),2
-0.721,-2.1,3.55,RYR3 (ryanodine receptor 3),3
-1.06,-4.49,3.23,ZP1 (zona pellucida glycoprotein 1),1
0.506,6.53,6.83,ZP1 (zona pellucida glycoprotein 1),2
0.898,9.29,6.65,ZP1 (zona pellucida glycoprotein 1),3
0.432,6,8.89,LRP12 (LDL receptor related protein 12),1
1.75,15.3,8.99,LRP12 (LDL receptor related protein 12),2
-1.86,-10.1,0.825,LRP12 (LDL receptor related protein 12),3

The list goes on (3 carried over from the part before).
G2 robust z-score,"G2 cells, % of GMNN control",raw share of cells in G2 (%),target,reagent no.
0.432,6,8.89,LRP12 (LDL receptor related protein 12),1
1.75,15.3,8.99,LRP12 (LDL receptor related protein 12),2
-1.86,-10.1,0.825,LRP12 (LDL receptor related protein 12),3
0.476,6.31,6.34,BSG (basigin (Ok blood group)),1
-0.683,-1.84,4.42,BSG (basigin (Ok blood group)),2
0.462,6.22,6.84,BSG (basigin (Ok blood group)),3
0.6,7.19,7.18,ANKS1B (ankyrin repeat and sterile alpha motif domain containing 1B),1
1.09,10.6,9.53,ANKS1B (ankyrin repeat and sterile alpha motif domain containing 1B),2
-0.998,-4.05,1.75,ANKS1B (ankyrin repeat and sterile alpha motif domain containing 1B),3
-0.205,1.52,4.21,EEF1B2P6,1
0.759,8.31,6.57,EEF1B2P6,2
0.818,8.72,6.08,EEF1B2P6,3
-0.229,1.36,3.98,ZMYND11 (zinc finger MYND-type containing 11),1
0.378,5.63,8.49,ZMYND11 (zinc finger MYND-type containing 11),2
-0.135,2.02,4.18,ZMYND11 (zinc finger MYND-type containing 11),3
-1.19,-5.37,1.93,RBM12B (RNA binding motif protein 12B),1
0.101,3.68,5,RBM12B (RNA binding motif protein 12B),2
-0.953,-3.73,3.03,RBM12B (RNA binding motif protein 12B),3
-0.267,1.09,3.99,CFAP47 (cilia and flagella associated protein 47),1
1.28,11.9,6.96,CFAP47 (cilia and flagella associated protein 47),2
-0.162,1.82,3.34,CFAP47 (cilia and flagella associated protein 47),3
-0.7,-1.96,2.93,CFAP47 (cilia and flagella associated protein 47),4
-0.0965,2.29,3.93,CFAP47 (cilia and flagella associated protein 47),5
0.604,7.22,5.46,CFAP47 (cilia and flagella associated protein 47),6
3.19,25.4,13.3,CFAP47 (cilia and flagella associated protein 47),7
2.69,21.9,11.1,CFAP47 (cilia and flagella associated protein 47),8
-0.392,0.208,3.21,CFAP47 (cilia and flagella associated protein 47),9
0.958,9.71,9.85,GM2A (ganglioside GM2 activator),1
-0.728,-2.15,3.3,GM2A (ganglioside GM2 activator),2
4.7,36,17.6,GM2A (ganglioside GM2 activator),3
-0.103,2.24,4.63,SMPD5 (sphingomyelin phosphodiesterase 5 (pseudogene)),1
-0.845,-2.98,2.33,SMPD5 (sphingomyelin phosphodiesterase 5 (pseudogene)),2
-0.867,-3.13,3.49,SMPD5 (sphingomyelin phosphodiesterase 5 (pseudogene)),3
-0.453,-0.223,3.77,CD209 (CD209 molecule),1
-0.082,2.39,5.45,CD209 (CD209 molecule),2
-0.248,1.22,3.64,CD209 (CD209 molecule),3
5.81 (active),43.8,24.4,YARS1 (tyrosyl-tRNA synthetase 1),1
4.15,32.2,16.2,YARS1 (tyrosyl-tRNA synthetase 1),2
-0.208,1.51,5.79,YARS1 (tyrosyl-tRNA synthetase 1),3
